Measured values from article PMC6481345, “A novel anti-melanoma SRC-family kinase inhibitor” (Oncotarget, 2019).

Key:
Test in all cases: CellTiter-Glo Luminescent Cell Viability Assay
Format in all cases: cell-based, human
[1] = tested on: YUROB melanoma cells
Experimental: (§1) The melanoma cells were grown in OptiMEM (Invitrogen, Carlsbad, CA) supplemented with 5% fetal calf serum and antibiotics. The normal human melanocytes (NBMEL) were grown in medium supplemented with bFGF, IBMX and dbcAMP [32]. Most of the Yale melanoma cell lines were characterized by next-generation sequencing (Supplementary Table 2).
(§2) Cell proliferation was measured with the CellTiter-Glo® Luminescent Cell Viability Assay (Promega Corporation, Madison, WI). Melanoma cells were seeded in 96-well plates in triplicate or quadruplet wells, with increasing concentrations of kinase inhibitors for 72 hrs. The rate of proliferation was also tested after knockdown of different SRC-family kinases (SFK) with hairpin lentivirus shRNA as indicated. […] The statistical significance of synergism of response to drug combinations was evaluated by following Chou and Talalay algorithm. See also details in Supplementary Material.

[2] = tested on: 501 mel melanoma cells
Experimental: as §1, §2

[3] = tested on: YUSIK melanoma cells
Experimental: as §1, §2

[4] = 501 mel BRAF V600E, Variation 2

## Cn1cnc2c(F)c(Nc3ccc(Br)cc3Cl)c(C(=O)NOCCO)cc21 [AZD6244, selumetinib, reference compound]
[1]; YUROB HRAS Q61K, Variation 2
  m (slope, median-effect equation): 0.3136 ± 0.04218
[1]; YUROB HRASQ61K, Variation 1
  m (slope, median-effect equation): 0.3136 ± 0.04218
[2]; [4]
  m (slope, median-effect equation): 0.521 ± 0.09853
[2]; 501 mel BRAFV600E, Variation 1
  m (slope, median-effect equation): 1.136 ± 0.7177
[3]; YUSIK BRAF V600E, Variation 2
  m (slope, median-effect equation): 0.7634 ± 0.167
[3]; YUSIK BRAFV600E, Variation 1
  m (slope, median-effect equation): 0.7634 ± 0.167

## Nc1ncnc2c1c(-c1ccc(Oc3ccccc3)cc1)nn2C[C@@H]1SSC[C@@H]1O [SAB298, (3S, 4S)-3-((4-amino-3-(4-phenoxyphenyl)-1H-pyrazolo[3,4-d]pyrimidin-1-yl)methyl)-1,2-dithiolan-4-ol]
[1]; YUROB HRAS Q61K, Variation 2
  m (slope, median-effect equation): 0.5976 ± 0.07865
[1]; YUROB HRASQ61K, Variation 1
  m (slope, median-effect equation): 1.666 ± 0.9206
[2]; [4]
  m (slope, median-effect equation): 0.4344 ± 0.08859
[2]; 501 mel BRAFV600E, Variation 1
  m (slope, median-effect equation): 1.524 ± 0.9375
[3]; YUSIK BRAF V600E, Variation 2
  m (slope, median-effect equation): 1.122 ± 0.2495
[3]; YUSIK BRAFV600E, Variation 1
  m (slope, median-effect equation): 2.852 ± 0.6764
